The text below walks through data of paper PMC3398883.

These are yes or no findings as the source states them, for the method shown. Binding seen in cells or lysates may run through a third protein. Some binding calls cover weakened binding; strength is not graded here.

The target in this experiment is YFP-XIAP (human) (UniProt P98170). The experiment is described as follows: co-IP; HEK293T transfected with SHIP-1 constructs along with YFP-XIAP or YFP; lysis in 20 mM Tris-HCl pH 7.5, 135 mM NaCl, 1 mM EDTA, 0.5% NP-40, 10% glycerol; anti-GFP immunoprecipitation, 4°C; blots with anti-SHIP-1, anti-HA or anti-Myc.

B1: SHIP-1 full length protein (SHIP-1 WT) (protein, UniProt Q92835 1-1189)
chain: MVPCWNHGNITRSKAEELLSRTGKDGSFLVRASESISRAYALCVLYRNCVYTYRILPNEDDKFTVQASEGVSMRFFTKLDQLIEFYKKENMGLVTHLQYPVPLEEEDTGDDPEEDTVESVVSPPELPPRNIPLTASSCEAKEVPFSNENPRATETSRPSLSETLFQRLQSMDTSGLPEEHLKAIQDYLSTQLAQDSEFVKTGSSSLPHLKKLTTLLCKELYGEVIRTLPSLESLQRLFDQQLSPGLRPRPQVPGEANPINMVSKLSQLTSLLSSIEDKVKALLHEGPESPHRPSLIPPVTFEVKAESLGIPQKMQLKVDVESGKLIIKKSKDGSEDKFYSHKKILQLIKSQKFLNKLVILVETEKEKILRKEYVFADSKKREGFCQLLQQMKNKHSEQPEPDMITIFIGTWNMGNAPPPKKITSWFLSKGQGKTRDDSADYIPHDIYVIGTQEDPLSEKEWLEILKHSLQEITSVTFKTVAIHTLWNIRIVVLAKPEHENRISHICTDNVKTGIANTLGNKGAVGVSFMFNGTSLGFVNSHLTSGSEKKLRRNQNYMNILRFLALGDKKLSPFNITHRFTHLFWFGDLNYRVDLPTWEAETIIQKIKQQQYADLLSHDQLLTERREQKVFLHFEEEEITFAPTYRFERLTRDKYAYTKQKATGMKYNLPSWCDRVLWKSYPLVHVVCQSYGSTSDIMTSDHSPVFATFEAGVTSQFVSKNGPGTVDSQGQIEFLRCYATLKTKSQTKFYLEFHSSCLESFVKSQEGENEEGSEGELVVKFGETLPKLKPIISDPEYLLDQHILISIKSSDSDESYGEGCIALRLEATETQLPIYTPLTHHGELTGHFQGEIKLQTSQGKTREKLYDFVKTERDESSGPKTLKSLTSHDPMKQWEVTSRAPPCSGSSITEIINPNYMGVGPFGPPMPLHVKQTLSPDQQPTAWSYDQPPKDSPLGPCRGESPPTPPGQPPISPKKFLPSTANRGLPPRTQESRPSDLGKNAGDTLPQEDLPLTKPEMFENPLYGSLSSFPKPAPRKDQESPKMPRKEPPPCPEPGILSPSIVLTKAQEADRGEGPGKQVPAPRLRSFTCSSSAEGRAAGGDKSQGKPKTPVSSQAPVPAKRPIKPSRSEINQQTPPTPTPRPPLPVKSPAVLHLQHSKGRDYRDNTELPHHGKHRPEEGPPGPLGRTAMQ
B1: the binding entry was “binds”.
